Assay [1] deals with PKA regulatory subunit type II beta (RIIb), Rluc PCA hybrid protein (UniProt P12369). The experiment in a line: split reporter; Rluc PCA; bait-F[1] and prey-F[2] hybrid constructs transiently over-expressed in HEK293 cells; intact cells in PBS, luminescence with 5 uM benzyl-coelenterazine; RIIb:PKAc also 1-48 h after transfection, with forskolin (50 uM or doses) and in 1536-well format.

Amino acid sequences for entries named in this document (tags omitted).
UniProt P12369: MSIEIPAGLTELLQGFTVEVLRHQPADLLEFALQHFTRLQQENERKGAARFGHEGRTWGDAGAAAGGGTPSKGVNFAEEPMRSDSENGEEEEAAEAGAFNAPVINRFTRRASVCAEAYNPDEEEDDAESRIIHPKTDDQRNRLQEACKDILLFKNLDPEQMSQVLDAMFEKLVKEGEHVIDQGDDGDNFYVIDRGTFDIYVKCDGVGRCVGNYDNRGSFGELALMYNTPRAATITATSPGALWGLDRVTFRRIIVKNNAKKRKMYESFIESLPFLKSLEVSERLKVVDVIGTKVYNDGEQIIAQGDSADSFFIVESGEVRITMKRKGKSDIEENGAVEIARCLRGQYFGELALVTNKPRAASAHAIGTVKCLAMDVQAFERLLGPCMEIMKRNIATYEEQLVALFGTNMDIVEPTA

For assay [2], the target named is T1, Tpk2 (yeast PKA catalytic subunit), Rluc PCA fusion (S. cerevisiae) (UniProt P06245).
T1 sequence: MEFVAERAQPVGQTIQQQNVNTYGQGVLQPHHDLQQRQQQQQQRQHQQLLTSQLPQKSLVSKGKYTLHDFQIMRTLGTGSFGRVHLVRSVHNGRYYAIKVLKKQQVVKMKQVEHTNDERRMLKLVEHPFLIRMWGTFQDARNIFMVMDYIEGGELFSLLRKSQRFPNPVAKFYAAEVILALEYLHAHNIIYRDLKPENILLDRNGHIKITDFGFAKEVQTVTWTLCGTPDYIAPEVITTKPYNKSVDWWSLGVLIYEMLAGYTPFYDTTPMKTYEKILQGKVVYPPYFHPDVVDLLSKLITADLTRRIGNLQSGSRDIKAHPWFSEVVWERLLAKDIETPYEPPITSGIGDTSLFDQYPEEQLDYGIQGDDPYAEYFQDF
The experiment in a line: split reporter; Rluc PCA in S. cerevisiae MATa cells grown in galactose medium; about 1 x 10^6 cells, 10 uM benzyl-coelenterazine; with glucose (100 mM) or galactose.

The target of assay [3] is T2, Tpk2 (yeast PKA catalytic subunit), Venus PCA fusion (S. cerevisiae) (UniProt P06245).
T2 sequence: T1 sequence
The assay can be described thus: split reporter; Venus-YFP PCA in S. cerevisiae MATa cells grown in low fluorescent galactose medium; fluorescence microscopy.

These are yes or no findings as the source states them, for the method shown. Binding seen in cells or lysates may run through a third protein. Some binding calls cover weakened binding; strength is not graded here. For part of these data: Sequences can lack the tags named with a protein.

With “PKA regulatory subunit type I alpha (RIa), Rluc PCA hybrid protein (from UniProt P10644-1 1-381)”, the binding entry in assay [1] is given as “no binding”.

B1: Bcy1 (yeast PKA regulatory subunit), Rluc PCA fusion (protein, UniProt P07278 1-416)
chain: MVSSLPKESQAELQLFQNEINAANPSDFLQFSANYFNKRLEQQRAFLKAREPEFKAKNIVLFPEPEESFSRPQSAQSQSRSRSSVMFKSPFVNEDPHSNVFKSGFNLDPHEQDTHQQAQEEQQHTREKTSTPPLPMHFNAQRRTSVSGETLQPNNFDDWTPDHYKEKSEQQLQRLEKSIRNNFLFNKLDSDSKRLVINCLEEKSVPKGATIIKQGDQGDYFYVVEKGTVDFYVNDNKVNSSGPGSSFGELALMYNSPRAATVVATSDCLLWALDRLTFRKILLGSSFKKRLMYDDLLKSMPVLKSLTTYDRAKLADALDTKIYQPGETIIREGDQGENFYLIEYGAVDVSKKGQGVINKLKDHDYFGEVALLNDLPRQATVTATKRTKVATLGKSGFQRLLGPAVDVLKLNDPTRH
As to B1, the binding entry in assay [2] was “binds”.

B2: Bcy1 (yeast PKA regulatory subunit), Venus PCA fusion (protein, UniProt P07278 1-416)
chain: B1 chain
For B2, the binding result in assay [3] is reported as “binds”.

The values are drawn from publication PMC4477410.
